The exact form of at least one protein or probe is not confirmed.

For this series, the system named is Wo (Woolly), HD-ZIP IV. Briefly: EMSA. Particulars: cold probe competes with increasing amount; Beyotime EMSA/Gel-Shift kit; protein with cold probe 10 min, then labeled probe 20 min, room temperature; polyacrylamide gel; salt and pH not stated; recombinant protein; protein details: MBP (pET-15d, purified with His-tag kit); label: 5' FAM.

For the sequence “CATAAAAGGTATGGTAAATGCTATCAGTATATAT (double strand) [SlTCP25-L1-probe]”, the binding result is given as “binds”.
